PMC1325028
No constants are given. Whether binding was seen depends on the method and setting. Binding seen in cells or lysates may run through a third protein. Binding calls can cover weak binding; strength is not graded here.

Amino acid sequences for entries named in this document (tags omitted). A change or cut given only in a name is not applied to a line headed by its entry.
UniProt P28829: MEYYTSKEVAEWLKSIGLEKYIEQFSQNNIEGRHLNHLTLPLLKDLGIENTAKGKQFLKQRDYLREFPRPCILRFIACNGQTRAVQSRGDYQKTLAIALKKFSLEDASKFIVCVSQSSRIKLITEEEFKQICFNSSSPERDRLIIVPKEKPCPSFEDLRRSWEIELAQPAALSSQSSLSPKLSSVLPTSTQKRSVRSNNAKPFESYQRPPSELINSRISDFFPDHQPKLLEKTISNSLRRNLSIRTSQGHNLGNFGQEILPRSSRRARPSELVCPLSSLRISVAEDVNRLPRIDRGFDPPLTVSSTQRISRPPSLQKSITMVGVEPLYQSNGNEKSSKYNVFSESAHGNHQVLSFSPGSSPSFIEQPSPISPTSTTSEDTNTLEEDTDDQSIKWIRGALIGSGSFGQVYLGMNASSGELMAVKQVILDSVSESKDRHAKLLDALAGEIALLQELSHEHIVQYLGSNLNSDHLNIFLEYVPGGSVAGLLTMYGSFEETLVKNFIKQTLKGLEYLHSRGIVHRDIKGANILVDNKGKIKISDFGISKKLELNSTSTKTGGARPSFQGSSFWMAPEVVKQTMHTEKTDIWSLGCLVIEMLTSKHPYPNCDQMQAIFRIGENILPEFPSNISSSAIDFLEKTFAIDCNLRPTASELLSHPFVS
UniProt P15064: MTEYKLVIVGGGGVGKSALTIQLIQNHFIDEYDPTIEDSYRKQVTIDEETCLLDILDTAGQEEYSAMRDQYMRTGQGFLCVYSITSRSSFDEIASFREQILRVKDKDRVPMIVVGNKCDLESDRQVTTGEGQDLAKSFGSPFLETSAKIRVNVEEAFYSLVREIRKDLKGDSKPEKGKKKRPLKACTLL

B1: RasC (activated, GTP-bound) (protein, UniProt P32253 1-189)
chain: MSKLLKLVIVGDGGVGKSALTIQLTQNQFIAEYDPTIENSYRKQVNIDEEVYMLDILDTAGQEEYSAMRDQYIRSGRGFLIVYSIISRASFEAVTTFREQILRVKDLSTYPIVIIGNKADLPDKDRKVPPMEGKELAKSFGAPFLETSAKSRVNVEEAFFTLVREIKRWNQNPQNEEMLPPKKRGCIIL

Target: GST-Byr2 (RBD), Ras Binding Domain from S. pombe Byr2 (S. pombe) (UniProt P28829)
Assay: pull-down; 0.8 mg lysate of AX2 or HSB61 cells (pulsed with cAMP for 6 h or 10 h, stimulated with 200 nM cAMP) incubated with 100 ug GST-Byr2 (RBD) at 4°C for 1 h in HK-LB (sodium phosphate pH 7.2, 1% Triton X-100, 10% glycerol, 150 mM NaCl, 10 mM MgCl2); beads washed three times; blot with RasC or RasG antibody; only the target purified

Row | Molecule | binding
1 | RasG (activated, GTP-bound) (from UniProt P15064 1-189) | binds
2 | B1 | binds
